In patent US20050244430A1:
These are yes or no findings as the source states them, for the method shown. Binding seen in cells or lysates may run through a third protein. Some entries that bind do so weakly or less than the wild type.

Chains of the proteins cited; added tags and fusions are not shown. Lines headed by an entry give the natural chain unless they say otherwise; changes in a name come on top. A line that says so, or that is headed by a name, gives the form on record, which may keep a tag or linker. Residues count along the entry.
UniProt O43187, residues 1-590: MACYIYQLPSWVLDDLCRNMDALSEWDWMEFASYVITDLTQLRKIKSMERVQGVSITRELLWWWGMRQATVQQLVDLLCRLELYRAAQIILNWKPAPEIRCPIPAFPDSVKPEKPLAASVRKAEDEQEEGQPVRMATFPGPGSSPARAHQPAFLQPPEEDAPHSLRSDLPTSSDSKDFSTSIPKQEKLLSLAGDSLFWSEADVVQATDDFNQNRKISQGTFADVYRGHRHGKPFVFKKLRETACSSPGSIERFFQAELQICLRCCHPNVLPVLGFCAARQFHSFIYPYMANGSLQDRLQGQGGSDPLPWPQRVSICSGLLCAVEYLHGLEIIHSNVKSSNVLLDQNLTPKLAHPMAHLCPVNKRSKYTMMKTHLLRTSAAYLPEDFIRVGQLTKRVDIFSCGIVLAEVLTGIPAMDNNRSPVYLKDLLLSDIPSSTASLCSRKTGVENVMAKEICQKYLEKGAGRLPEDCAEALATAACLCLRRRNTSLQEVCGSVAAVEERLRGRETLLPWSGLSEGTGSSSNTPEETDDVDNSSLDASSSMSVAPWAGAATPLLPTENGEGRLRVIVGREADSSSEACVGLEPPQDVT
HA-Mal (P58753, form named): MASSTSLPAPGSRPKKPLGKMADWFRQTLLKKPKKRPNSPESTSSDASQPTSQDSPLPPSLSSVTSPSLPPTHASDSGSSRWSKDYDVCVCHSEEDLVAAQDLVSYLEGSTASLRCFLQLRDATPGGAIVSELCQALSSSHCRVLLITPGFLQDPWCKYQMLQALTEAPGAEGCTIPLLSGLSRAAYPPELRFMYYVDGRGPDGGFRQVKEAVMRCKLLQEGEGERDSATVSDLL

Target: Myc-IRAK2 (UniProt O43187)
Experiment: co-immunoprecipitation from 293T lysates (not shown)

## HA-Mal (from UniProt P58753 1-235)
  binding: binds
